Assay results reported in publication PMC9775322, “An Integrated Analysis of Mechanistic Insights into Biomolecular Interactions and Molecular Dynamics of Bio-Inspired Cu(II) and Zn(II) Complexes towards DNA/BSA/SARS-CoV-2 3CL^pro by Molecular Docking-Based Virtual Screening and FRET Detection” (Biomolecules, 2022).

Tested on: CT-DNA
Test: DNA binding by cyclic voltammetry
Parameters: species or system calf
Conditions: for Do (diffusion coefficient), Bound / E° (or) E1/2 (formal electrode potential), Bound / Ipa/Ipc, Bound / ΔEP (peak-to-peak separation), Bound: bound to CT-DNA; for ΔEP (peak-to-peak separation), Bound / ΔEP (peak-to-peak separation), Free: scan rate 100 mV s^−1; for Es° = Eb° − Ef°: shift of formal potential on DNA binding; for Do (diffusion coefficient), Free / E° (or) E1/2 (formal electrode potential), Free / Ipa/Ipc, Free / ΔEP (peak-to-peak separation), Free: without DNA
Experimental: The CV experiment was carried out for free substances at 10 µM at room temperature with a 5 mM Tris-HCl/50 mM NaCl buffer solution (pH: 7.4). While CT-DNA increases (0–10 µM) in each sample solution, shifts in potential, including variations in the anodic and cathodic peak currents, have been monitored.
2.2.7. Evaluation of DNA interaction properties using cyclic voltammetry technique The electrochemical analysis is a critical entity to examine the electron transfer reactions of the test compounds. With a scan rate of 0.1V, the CHI 620C electrochemical analyzer was utilized with a three-electrode system consisting of glassy carbon as the working electrode, Ag/AgCl as the reference electrode, and platinum wire as the counter/auxiliary electrode to monitor changes in peak current and peak potential during the interaction between test compound and DNA. The changes in peak current and peak potential further afford data on the binding constant as well as the mode of interaction for test compound –DNA adducts. In single-compartment cells of 5 –15 mL, electrochemical titrations for all test compounds were executed at 25 °C in the absence and presence of DNA. The solutions were then deoxygenated by passing them through N 2 before measurements were made. The electrochemical analysis for free compounds was executed at a 10 µM concentration in the presence of 5mM Tr is-HCl /50 mM NaCl (pH = 7.2) buffer solution. Changes in the anodic […]
and cathodic peak currents, as well as potential shifts, have been observed as CT-DNA concentrations in each solution of complexes rise from 1 to 10 µM [32].
I ) = log [DNA] + log Kb (S24)
The peak currents of the chemical in the absence and presence of deoxyribonucleic acid are designated as I0 and I, respectively.
Kb values for all samples were estimated through the linear regression plot of log (1/[DNA]) versus log (I/I0–I) by method-I. Equation (S26) was attained from equation (S25).
Cf and Cb are represented as the free substance concentration and DNA-interacted compound, respectively, and equation (S28) was obtained by comparing equations (S26) and (S27).
Ipa is denoted as the anodic peak current in amperes, n is represented as the number of electrons participating in the redox (M 1+/M2+) process (n=1), The activation coefficient (charge transfer coefficient) is shown by the symbol α. and the value is equal to 0.5, which is a typically supported approximation for numerous quasi-reversible systems.
2.3. DFT and molecular modelling studies
DFT calculations were performed to comprehend the electronic structure and reactivity of ligand (HL) and metal complexes ( 1b-2b) using the Gaussian 09 package [ 34]. Geometries were fully optimized both in the gas phase and methanol solution using B3LYP, and comparatively later with the CAM-B3LYP and M06-2X functionals. For each complex, the […]

In the case of [Cu+2].[O-]c1ccccc1N=Cc1ccc(N2CCOCC2)cc1.[O-]c1ccccc1N=Cc1ccc(N2CCOCC2)cc1.c1cnc2c(c1)ccc1cccnc12 [(1b), [Cu^II(L)2(phen)]], the “Do (diffusion coefficient), Bound” value was 4.0688 × 10^−5 cm^2 s^−1, the “E° (or) E1/2 (formal electrode potential), Bound” value was 0.7317 V and the “Ipa/Ipc, Bound” value was 0.7920. The “ΔEP (peak-to-peak separation), Bound” value was 0.2031 V, the “Es° = Eb° − Ef°” value was 0.0302 V and the “Do (diffusion coefficient), Free” value was 4.4035 × 10^−5 cm^2 s^−1. For the same compound, the “E° (or) E1/2 (formal electrode potential), Free” value was 0.7015 V, the “Ipa/Ipc, Free” value was 0.8494 and the “ΔEP (peak-to-peak separation), Free” value was 0.2366 V.

In the case of [O-]c1ccccc1N=Cc1ccc(N2CCOCC2)cc1.[O-]c1ccccc1N=Cc1ccc(N2CCOCC2)cc1.[Zn+2].c1cnc2c(c1)ccc1cccnc12 [(2b), [Zn^II(L)2(phen)]], the “Do (diffusion coefficient), Bound” value was 3.6573 × 10^−5 cm^2 s^−1, the “E° (or) E1/2 (formal electrode potential), Bound” value was 0.5712 V and the “Ipa/Ipc, Bound” value was 0.6464. The “ΔEP (peak-to-peak separation), Bound” value was 0.4350 V, the “Es° = Eb° − Ef°” value was 0.034 V and the “Do (diffusion coefficient), Free” value was 4.0597 × 10^−5 cm^2 s^−1. For the same compound, the “E° (or) E1/2 (formal electrode potential), Free” value was 0.5372 V, the “Ipa/Ipc, Free” value was 0.6072 and the “ΔEP (peak-to-peak separation), Free” value was 0.4261 V.

Oc1ccccc1N=Cc1ccc(N2CCOCC2)cc1 [(HL), 2-(4-morpholinobenzylideneamino)phenol] was tested, and the “Do (diffusion coefficient), Bound” value was 2.5809 × 10^−5 cm^2 s^−1, the “E° (or) E1/2 (formal electrode potential), Bound” value was 0.3680 V and the “Ipa/Ipc, Bound” value was 1.3424. The “ΔEP (peak-to-peak separation), Bound” value was 0.8890 V, the “Es° = Eb° − Ef°” value was 0.019 V and the “Do (diffusion coefficient), Free” value was 2.8570 × 10^−5 cm^2 s^−1. The “E° (or) E1/2 (formal electrode potential), Free” value was 0.3490 V, the “Ipa/Ipc, Free” value was 1.4295 and the “ΔEP (peak-to-peak separation), Free” value was 0.7420 V.
